Measured values from paper PMC7332293.

The chains behind the UniProt entries cited, without tags or fusion partners. Where a name states a change or a piece, a line headed by the entry shows the natural chain unless it says otherwise.
UniProt Q9BY78: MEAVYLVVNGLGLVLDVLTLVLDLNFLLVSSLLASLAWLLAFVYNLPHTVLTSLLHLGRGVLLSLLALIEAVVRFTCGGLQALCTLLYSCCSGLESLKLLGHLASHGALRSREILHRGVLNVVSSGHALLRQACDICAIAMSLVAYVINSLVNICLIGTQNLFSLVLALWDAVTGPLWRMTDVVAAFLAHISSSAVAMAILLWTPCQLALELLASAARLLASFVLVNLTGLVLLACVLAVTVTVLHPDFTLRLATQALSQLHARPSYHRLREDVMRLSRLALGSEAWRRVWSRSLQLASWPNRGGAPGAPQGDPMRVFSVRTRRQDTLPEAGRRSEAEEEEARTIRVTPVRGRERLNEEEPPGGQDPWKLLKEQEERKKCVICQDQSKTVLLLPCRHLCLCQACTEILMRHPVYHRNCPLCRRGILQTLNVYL
UniProt Q9UKV5: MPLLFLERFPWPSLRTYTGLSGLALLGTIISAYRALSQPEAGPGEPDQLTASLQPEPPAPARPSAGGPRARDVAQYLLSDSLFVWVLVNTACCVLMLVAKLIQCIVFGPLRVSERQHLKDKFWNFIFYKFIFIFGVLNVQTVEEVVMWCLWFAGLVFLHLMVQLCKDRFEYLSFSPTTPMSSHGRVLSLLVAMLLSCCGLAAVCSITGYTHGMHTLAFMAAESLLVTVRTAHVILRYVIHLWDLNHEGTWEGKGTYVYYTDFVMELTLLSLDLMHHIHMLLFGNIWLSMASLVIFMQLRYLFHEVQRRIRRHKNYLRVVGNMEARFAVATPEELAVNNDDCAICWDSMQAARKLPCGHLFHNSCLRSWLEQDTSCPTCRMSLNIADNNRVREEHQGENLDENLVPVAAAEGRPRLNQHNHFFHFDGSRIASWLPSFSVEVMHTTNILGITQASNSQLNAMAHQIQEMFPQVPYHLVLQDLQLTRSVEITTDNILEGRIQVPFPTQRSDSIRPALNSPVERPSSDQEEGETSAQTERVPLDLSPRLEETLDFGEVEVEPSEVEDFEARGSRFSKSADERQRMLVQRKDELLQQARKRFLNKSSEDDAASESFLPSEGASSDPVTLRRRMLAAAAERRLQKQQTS
UniProt Q99942: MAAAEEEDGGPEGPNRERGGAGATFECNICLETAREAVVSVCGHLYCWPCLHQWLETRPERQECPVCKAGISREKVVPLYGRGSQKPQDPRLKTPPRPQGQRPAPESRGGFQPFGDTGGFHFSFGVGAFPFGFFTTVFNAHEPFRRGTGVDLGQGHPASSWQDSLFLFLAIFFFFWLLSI

Legend:
Test in all cases: affinity purification with mass spectrometry; FLAG-HA-tagged E3 induced with DOX in stable Flp-In293 cells; lysates in 1% LMNG (150 mM NaCl, 50 mM Tris-HCl pH 7.4, 5 mM EDTA); anti-FLAG agarose, 2 hr; eluted with SDS; LC-MS/MS; HCIPs by BSCG and SINQ analysis
Hrd1-FH (human), Q86TM6 = conditions: remark: other sources report otherwise
FH-RNF26_(Y432A) (human) = FH-RNF26_(Y432A) (human) (UniProt Q9BY78)
[1] = biological target: FLAG-HA-tagged gp78/AMFR (human) (UniProt Q9UKV5)
[2] = biological target: T1, FLAG-HA-tagged CGRRF1 (human) (UniProt Q99675)
T1 sequence: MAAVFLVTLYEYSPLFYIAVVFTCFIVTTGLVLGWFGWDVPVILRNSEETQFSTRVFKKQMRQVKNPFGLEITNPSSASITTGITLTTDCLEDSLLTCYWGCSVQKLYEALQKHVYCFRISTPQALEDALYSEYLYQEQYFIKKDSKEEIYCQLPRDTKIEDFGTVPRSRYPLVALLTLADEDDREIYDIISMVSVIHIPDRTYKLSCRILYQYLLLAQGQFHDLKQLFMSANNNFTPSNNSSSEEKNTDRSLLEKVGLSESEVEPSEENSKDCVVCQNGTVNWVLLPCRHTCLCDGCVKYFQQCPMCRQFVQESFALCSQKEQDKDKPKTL

FH-RNF26WT (human) = FH-RNF26WT (human) (UniProt Q9BY78)
FH-RNF185 (human) = biological target: T2, FH-RNF185 (human) (UniProt Q96GF1)
T2 sequence: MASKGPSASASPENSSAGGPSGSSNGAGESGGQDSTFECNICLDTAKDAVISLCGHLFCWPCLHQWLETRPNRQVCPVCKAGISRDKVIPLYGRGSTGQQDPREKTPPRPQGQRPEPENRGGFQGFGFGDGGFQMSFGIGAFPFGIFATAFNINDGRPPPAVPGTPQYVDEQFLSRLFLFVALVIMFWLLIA

[3] = biological target: T3, FLAG-HA-tagged RNF170 (human) (UniProt Q96K19)
T3 sequence: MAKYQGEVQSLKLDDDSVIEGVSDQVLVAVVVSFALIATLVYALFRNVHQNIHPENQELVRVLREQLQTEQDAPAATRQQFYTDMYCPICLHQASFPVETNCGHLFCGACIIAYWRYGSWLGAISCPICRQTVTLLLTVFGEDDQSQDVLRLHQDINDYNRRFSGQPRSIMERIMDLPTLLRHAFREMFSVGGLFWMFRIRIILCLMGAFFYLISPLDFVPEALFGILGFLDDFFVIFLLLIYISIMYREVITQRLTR

[4] = biological target: FLAG-HA-tagged RNF5 (human) (UniProt Q99942)

binding (Hrd1-FH (human), Q86TM6): binds
B1: Herp, Q15011 1-391 (protein)
chain: MESETEPEPVTLLVKSPNQRHRDLELSGDRGWSVGHLKAHLSRVYPERPRPEDQRLIYSGKLLLDHQCLRDLLPKQEKRHVLHLVCNVKSPSKMPEINAKVAESTEEPAGSNRGQYPEDSSSDGLRQREVLRNLSSPGWENISRPEAAQQAFQGLGPGFSGYTPYGWLQLSWFQQIYARQYYMQYLAATAASGAFVPPPSAQEIPVVSAPAPAPIHNQFPAENQPANQNAAPQVVVNPGANQNLRMNAQGGPIVEEDDEINRDWLDWTYSAATFSVFLSILYFYSSLSRFLMVMGATVVMYLHHVGWFPFRPRPVQNFPNDGPPPDVVNQDPNNNLQEGTDPETEDPNHLPPDRDVLDGEQTSPSFMSTAWLVFKTFFASLLPEGPPAIAN

binding (FH-RNF26_(Y432A) (human)): binds
B2: AUP1 (endogenous) (protein, UniProt Q9Y679 1-410)
chain: MELPSGPGPERLFDSHRLPGDCFLLLVLLLYAPVGFCLLVLRLFLGIHVFLVSCALPDSVLRRFVVRTMCAVLGLVARQEDSGLRDHSVRVLISNHVTPFDHNIVNLLTTCSTPLLNSPPSFVCWSRGFMEMNGRGELVESLKRFCASTRLPPTPLLLFPEEEATNGREGLLRFSSWPFSIQDVVQPLTLQVQRPLVSVTVSDASWVSELLWSLFVPFTVYQVRWLRPVHRQLGEANEEFALRVQQLVAKELGQTGTRLTPADKAEHMKRQRHPRLRPQSAQSSFPPSPGPSPDVQLATLAQRVKEVLPHVPLGVIQRDLAKTGCVDLTITNLLEGAVAFMPEDITKGTQSLPTASASKFPSSGPVTPQPTALTFAKSSWARQESLQERKQALYEYARRRFTERRAQEAD

binding (FH-RNF26_(Y432A) (human)): binds
binding [1]: binds
B3: FAF2/UBXD8 (endogenous) (protein, UniProt Q96CS3 1-445)
chain: MAAPEERDLTQEQTEKLLQFQDLTGIESMDQCRHTLEQHNWNIEAAVQDRLNEQEGVPSVFNPPPSRPLQVNTADHRIYSYVVSRPQPRGLLGWGYYLIMLPFRFTYYTILDIFRFALRFIRPDPRSRVTDPVGDIVSFMHSFEEKYGRAHPVFYQGTYSQALNDAKRELRFLLVYLHGDDHQDSDEFCRNTLCAPEVISLINTRMLFWACSTNKPEGYRVSQALRENTYPFLAMIMLKDRRMTVVGRLEGLIQPDDLINQLTFIMDANQTYLVSERLEREERNQTQVLRQQQDEAYLASLRADQEKERKKREERERKRRKEEEVQQQKLAEERRRQNLQEEKERKLECLPPEPSPDDPESVKIIFKLPNDSRVERRFHFSQSLTVIHDFLFSLKESPEKFQIEANFPRRVLPCIPSEEWPNPPTLQEAGLSHTEVLFVQDLTDE

binding [2]: binds
B4: Evi/WLS/GPR177 (protein, UniProt Q5T9L3 1-541)
chain: MAGAIIENMSTKKLCIVGGILLVFQIIAFLVGGLIAPGPTTAVSYMSVKCVDARKNHHKTKWFVPWGPNHCDKIRDIEEAIPREIEANDIVFSVHIPLPHMEMSPWFQFMLFILQLDIAFKLNNQIRENAEVSMDVSLAYRDDAFAEWTEMAHERVPRKLKCTFTSPKTPEHEGRYYECDVLPFMEIGSVAHKFYLLNIRLPVNEKKKINVGIGEIKDIRLVGIHQNGGFTKVWFAMKTFLTPSIFIIMVWYWRRITMMSRPPVLLEKVIFALGISMTFINIPVEWFSIGFDWTWMLLFGDIRQGIFYAMLLSFWIIFCGEHMMDQHERNHIAGYWKQVGPIAVGSFCLFIFDMCERGVQLTNPFYSIWTTDIGTELAMAFIIVAGICLCLYFLFLCFMVFQVFRNISGKQSSLPAMSKVRRLHYEGLIFRFKFLMLITLACAAMTVIFFIVSQVTEGHWKWGGVTVQVNSAFFTGIYGMWNLYVFALMFLYAPSHKNYGEDQSNGDLGVHSGEELQLTTTITHVDGPTEIYKLTRKEAQE

binding (FH-RNF26WT (human)): binds
binding (FH-RNF26_(Y432A) (human)): binds
B5: TMEM43/LUMA (endogenous) (protein, UniProt Q9BTV4 1-400)
chain: MAANYSSTSTRREHVKVKTSSQPGFLERLSETSGGMFVGLMAFLLSFYLIFTNEGRALKTATSLAEGLSLVVSPDSIHSVAPENEGRLVHIIGALRTSKLLSDPNYGVHLPAVKLRRHVEMYQWVETEESREYTEDGQVKKETRYSYNTEWRSEIINSKNFDREIGHKNPSAMAVESFMATAPFVQIGRFFLSSGLIDKVDNFKSLSLSKLEDPHVDIIRRGDFFYHSENPKYPEVGDLRVSFSYAGLSGDDPDLGPAHVVTVIARQRGDQLVPFSTKSGDTLLLLHHGDFSAEEVFHRELRSNSMKTWGLRAAGWMAMFMGLNLMTRILYTLVDWFPVFRDLVNIGLKAFAFCVATSLTLLTVAAGWLFYRPLWALLIAGLALVPILVARTRVPAKKLE

binding (Hrd1-FH (human), Q86TM6): binds
B6: UBE2J1, Q9Y385 1-318 (enzyme)
chain: METRYNLKSPAVKRLMKEAAELKDPTDHYHAQPLEDNLFEWHFTVRGPPDSDFDGGVYHGRIVLPPEYPMKPPSIILLTANGRFEVGKKICLSISGHHPETWQPSWSIRTALLAIIGFMPTKGEGAIGSLDYTPEERRALAKKSQDFCCEGCGSAMKDVLLPLKSGSDSSQADQEAKELARQISFKAEVNSSGKTISESDLNHSFSLTDLQDDIPTTFQGATASTSYGLQNSSAASFHQPTQPVAKNTSMSPRQRRAQQQSQRRLSTSPDVIQGHQPRDNHTDHGGSAVLIVILTLALAALIFRRIYLANEYIFDFEL

binding (FH-RNF185 (human)): binds
binding [3]: binds
binding [4]: binds
binding [1]: binds
B7: ERLIN1 (protein, UniProt O75477 1-348)
chain: MNMTQARVLVAAVVGLVAVLLYASIHKIEEGHLAVYYRGGALLTSPSGPGYHIMLPFITTFRSVQTTLQTDEVKNVPCGTSGGVMIYIDRIEVVNMLAPYAVFDIVRNYTADYDKTLIFNKIHHELNQFCSAHTLQEVYIELFDQIDENLKQALQKDLNLMAPGLTIQAVRVTKPKIPEAIRRNFELMEAEKTKLLIAAQKQKVVEKEAETERKKAVIEAEKIAQVAKIRFQQKVMEKETEKRISEIEDAAFLAREKAKADAEYYAAHKYATSNKHKLTPEYLELKKYQAIASNSKIYFGSNIPNMFVDSSCALKYSDIRTGRESSLPSKEALEPSGENVIQNKESTG

No constants are given. Whether binding was seen depends on the method and setting. Binding seen in cells or lysates may run through a third protein. Here binding means that the protein was enriched with, or labelled near, the bait; the list need not be complete. For part of these data: Where a sequence is shown, tags or fusion partners need not be part of it. One block for each binder: values may come before it.
